Earlier results, collected in patent publication US6794365B2, “Malonic acid derivatives, processes for their preparation their use and pharmaceutical compositions containing them” (Aventis Pharma Deutschland GmbH, priority 2000, dated 2004).
Some entries share one result that the patent states for a list of compounds.

Test system: thrombin and factor Xa
Conditions: relative to heparin; cited from earlier work

| Substance | difference in potency, Xa versus thrombin, in vitro |
| --- | --- |
| heparin sulfate | 3-30 fold |
| low molecular weight heparin [LMWH] | 3-30 fold |
